Measurements taken from patent publication US8822517B2, “Arylosulfonamides for the treatment of CNS diseases” (Adamed SP. Z O.O., priority 2010, dated 2014).
At least one structure is not confirmed: it was looked up by name or label, or the drawing left a doubt.

System: adrenergic α1 receptor
Experiment: Binding assay α1 (non-selective), [3H]prazosin, rat cerebral cortex
Conditions: percent inhibition of control specific binding; compounds tested at 1×10^−6 M
Procedure: The specific ligand binding to the receptors is defined as the difference between the total binding and the nonspecific binding determined in the presence of an excess of so unlabelled ligand.
The specific Ligand binding to the receptor is defined as the difference between total and non-specific binding determined in the presence of an excess of unlabelled ligand. The compounds were tested at a concentration of 1×10^−6 M, and scintillation counting was the method of detection of ligand binding.

SMILES: Cc1[nH]c2ccc(Cl)cc2c1C1=CCN(CCCCNS(=O)(=O)c2ccc(F)cc2)CC1 [Compound 368, N-[4-[4-(5-Chloro-2-methyl-1H-indol-3-yl)-3,6-dihydro-2H-pyridin-1-yl]butyl]-4-fluorobenzenesulphonamide]
- α1 [%]: 34%
